Measured data: PubChem BioAssay AID1259405 (NCATS, 2018)

Screen: 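Mouse-designed siRNAs used to find CHO productivity engineering targets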 (primary screen)
Cells: Chinese hamster CHO-K1 ovary cells with stable secreted eGFP expression
Knock-down reagent: single siRNA against mouse genes, 0.8 pmol siRNA per well (2 µl of 400 nM stock)
Duration: 3 days
Measurement: 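Percent of the per-plate non-targeting control median for intracellular GFP per well by laser scanning cytometry and for cell viability by ATP luminescence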
Reading the numbers: GFP, % of control: higher = more GFP per well, higher productivity; viability (ATP), % of control: higher = more viable cells (more ATP)
Call rule: 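a knock-down is called active if GFP reaches 120% or more of non-targeting control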
The deposit covers about 50,000 reagents; below is a part drawn at random. About 4,000 of all reagents (8%) count as active. 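Mouse siRNA library applied to hamster cells; one well for each siRNA.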 A number with no mark means an inactive call. The numbers tell different reagents against one gene apart. Reagent sequences are not shown.

For Pnliprp2 (pancreatic lipase-related protein 2) #1 the deposit lists GFP, % of control 90.4; viability (ATP), % of control 88.3.
Silencing of Pnliprp2 (pancreatic lipase-related protein 2) #2 resulted in: GFP, % of control 79.6; viability (ATP), % of control 104.
With knock-down of Pnliprp2 (pancreatic lipase-related protein 2) #3, the screen gave GFP, % of control 62.3; viability (ATP), % of control 34.9.
Silencing of Rbfox2 (RNA binding protein, fox-1 homolog (C. elegans) 2) #1 resulted in: GFP, % of control 96.4; viability (ATP), % of control 75.5.
Silencing of Rbfox2 (RNA binding protein, fox-1 homolog (C. elegans) 2) #2 came out at: GFP, % of control 87.2; viability (ATP), % of control 84.5.
With knock-down of Rbfox2 (RNA binding protein, fox-1 homolog (C. elegans) 2) #3, the screen gave GFP, % of control 81.7; viability (ATP), % of control 56.3.
Silencing of Or14c45 (olfactory receptor family 14 subfamily C member 45) #1 gave: GFP, % of control 33; viability (ATP), % of control 31.2.
With knock-down of Or14c45 (olfactory receptor family 14 subfamily C member 45) #2, the screen gave GFP, % of control 66.9; viability (ATP), % of control 55.
Or14c45 (olfactory receptor family 14 subfamily C member 45) #3 gave GFP, % of control 65.6; viability (ATP), % of control 111.
Against A530053G22Rik (RIKEN cDNA A530053G22 gene) #1 the deposit lists GFP, % of control 241 (active); viability (ATP), % of control 70.8.
With knock-down of A530053G22Rik (RIKEN cDNA A530053G22 gene) #2, the record shows GFP, % of control 76.1; viability (ATP), % of control 84.
With knock-down of A530053G22Rik (RIKEN cDNA A530053G22 gene) #3, the record shows GFP, % of control 65.9; viability (ATP), % of control 69.2.
With knock-down of Keg1 (kidney expressed gene 1) #1, the screen gave GFP, % of control 58.6; viability (ATP), % of control 84.1.
Keg1 (kidney expressed gene 1) #2 scored GFP, % of control 61.2; viability (ATP), % of control 76.
Keg1 (kidney expressed gene 1) #3 showed GFP, % of control 56.8; viability (ATP), % of control 76.9.
Mastl (microtubule associated serine/threonine kinase-like) gave GFP, % of control 59.8; viability (ATP), % of control 76.5.
Mob2 (MOB kinase activator 2) #1 showed GFP, % of control 57; viability (ATP), % of control 85.2.
With knock-down of Mob2 (MOB kinase activator 2) #2, the screen gave GFP, % of control 81.7; viability (ATP), % of control 72.1.
After knock-down of Hbb-y (hemoglobin Y, beta-like embryonic chain) #1, the screen gave GFP, % of control 110; viability (ATP), % of control 87.3.
Against Hbb-y (hemoglobin Y, beta-like embryonic chain) #2 the deposit lists GFP, % of control 61.6; viability (ATP), % of control 37.2.
Against Hbb-y (hemoglobin Y, beta-like embryonic chain) #3 the deposit lists GFP, % of control 74.3; viability (ATP), % of control 83.2.
Wnt3a (WNT family member 3A) #1 showed GFP, % of control 77; viability (ATP), % of control 72.6.
Knock-down of Wnt3a (WNT family member 3A) #2 gave: GFP, % of control 61.8; viability (ATP), % of control 72.1.
Wnt3a (WNT family member 3A) #3 showed GFP, % of control 43.6; viability (ATP), % of control 56.1.
With knock-down of Ap1g1 (adaptor protein complex AP-1, gamma 1 subunit) #1, the screen gave GFP, % of control 104; viability (ATP), % of control 59.
Against Ap1g1 (adaptor protein complex AP-1, gamma 1 subunit) #2, the values are GFP, % of control 72.3; viability (ATP), % of control 62.
Depletion of Ap1g1 (adaptor protein complex AP-1, gamma 1 subunit) #3 came out at: GFP, % of control 123 (active); viability (ATP), % of control 80.7.

3 entries already listed, ordered by “GFP, % of control”, low to high:
Ap1g1 (adaptor protein complex AP-1, gamma 1 subunit) #2 | GFP, % of control = 72.3; viability (ATP), % of control = 62
Ap1g1 (adaptor protein complex AP-1, gamma 1 subunit) #1 | GFP, % of control = 104; viability (ATP), % of control = 59
Ap1g1 (adaptor protein complex AP-1, gamma 1 subunit) #3 | GFP, % of control = 123 (active); viability (ATP), % of control = 80.7
